Laboratory results: PubChem BioAssay AID624297 (National Center for Advancing Translational Sciences (NCATS), 2012)
The campaign covered roughly 340,000 compounds. About 6,200 (1.8%) were called active. This list was built around the results that the source calls inconclusive (neither active nor inactive); the mix of calls is not that of the screen. The call rests on the fitted dose curve; in most records, active means well fitted activation curve with a large enough effect; inconclusive means small, poorly fitted or top-dose-only effect; inactive means no such curve, though single readings can be large or run the other way. Potencies of inconclusive entries are doubtful fits and often do not repeat.

Test: A quantitative high throughput screen for small molecules that induce DNA re-replication in SW480 colon adenocarcinoma cells. Further: nearly all actives have a fitted effect of over 55% in size. On re-replication activation: % of control where 0% means no effect.
Details: Hoechst DNA content imaging, 48 h; re-replication activation: at 46.1 µM (top of the series) unless noted
Procedure, shortened: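 Readout is total intensity of Hoechst-stained nuclei, excited at 405 nm and collected at 500-530 nm. Compound treatment lasted 48 hr at 37 C in 5% CO2 before staining.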
Potency means the concentration at half of the fitted maximal effect.

SMILES | Potency | re-replication activation
NC(=O)NC(=O)COC(=O)CCCSc1nc2ccccc2s1 | inconclusive: 0.231 µM [activator, full curve, poor fit] | –
CCCC(C(=O)NC(C)(C)C)N(Cc1ccc(F)cc1)C(=O)c1snc(C(N)=O)c1N (configuration not stated) | inactive | –
CC(C)CN(C(=O)CSc1nn(-c2ccc(Cl)cc2)c(=S)s1)C1CCS(=O)(=O)C1 (configuration not stated) | inactive | –
CCCCCCCC(=O)N/N=C(/C)c1c(O)cc(C)oc1=O | inconclusive: 23.1 µM [activator, single point] | –
C=CCN1C(=O)c2ccc(C(=O)Nc3ccccn3)cc2C1=O | inconclusive: 3.66 µM [activator, partial curve, poor fit] | –
Clc1ccc2oc(SCc3cccnc3)nc2c1 | inconclusive: 29.1 µM [activator, single point] | –
O=C(N/N=C/C(Cl)=C/c1ccccc1)c1cnccn1 | inconclusive: 4.61 µM [activator, full curve, poor fit] | –
Oc1cc(NCCc2cccnc2)cc2cccnc12 | inconclusive: 13 µM [activator, partial curve, poor fit] | –
Cc1nc2ccc(S(=O)(=O)NCC(=O)Nc3ccc(F)cc3)cc2s1 | inconclusive: 20.6 µM [activator, single point] | –
CCOc1ccccc1C(=O)Nc1ccsc1C(=O)OC | active: 5.8 µM | –
O=[N+]([O-])c1cc(-n2cnnn2)ccc1N1CCC(Cc2ccccc2)CC1 | inconclusive: 29.1 µM [activator, single point] | –
CN(C)S(=O)(=O)n1cc(/C=C(\NC(=O)c2ccccc2)C(=O)NCCCn2ccnc2)c2ccccc21 | inconclusive: 32.6 µM [activator, single point] | –
CCOC(=O)c1cccc(NC(=O)CCCn2c(=O)c3cccn3c3cccnc32)c1 | inconclusive: 9.2 µM [activator, partial curve, poor fit] | –
COc1ccc(-c2ncncc2-c2ccc(OC)c(OC)c2)c(O)c1 | inconclusive: 1.03 µM [activator, full curve] | –
OCCC#Cc1c(-c2ccsc2)sc2ccccc12 | inconclusive: 0.164 µM [activator, full curve, poor fit] | –
O=C1NC[C@H](Cc2ccccc2)N(C[C@H]2CCCN2C[C@H](Cc2ccccc2)N2C[C@H](Cc3ccccc3)N(CCc3ccccc3)C(=O)C2=O)C1=O | inconclusive: 29.1 µM [activator, single point] | –
COc1cccc(/C=C2\SC(=S)N(CCCC(=O)Nc3ccc(C(=O)O)cc3)C2=O)c1 | inactive | –
CC1(C)CC(NCCN2CCN(C3=CC(=C(C#N)C#N)CC(C)(C)C3)CC2)=CC(=C(C#N)C#N)C1 | – | inactive: 102% [at 1.84 µM]
N#CC(C(=O)NCCc1ccccc1)c1nc2ccccc2nc1N1CCCCC1 (configuration not stated) | inconclusive: 2.91 µM [activator, partial curve, poor fit] | –
Cc1cccc(Nc2ccccc2C(=O)NCc2ccco2)c1C | inconclusive: 20.6 µM [activator, single point] | –
O=C(NC(=S)Nc1nc(-c2cccc([N+](=O)[O-])c2)cs1)c1cc(Cl)ccc1Cl | inconclusive: 20.6 µM [activator, single point] | –
O=C(CSc1nnc(-c2ccc3c(c2)OCO3)o1)Nc1ncc(Cl)cc1Cl | inconclusive: 29.1 µM [activator, partial curve, poor fit] | –
O=S(=O)(Nc1ccc2cn[nH]c2c1)c1ccc(Cl)cc1 | inactive | –

Three entries from above, as a markdown table.

| SMILES | Potency | re-replication activation |
| --- | --- | --- |
| CCOc1ccccc1C(=O)Nc1ccsc1C(=O)OC | active: 5.8 µM | – |
| O=[N+]([O-])c1cc(-n2cnnn2)ccc1N1CCC(Cc2ccccc2)CC1 | inconclusive: 29.1 µM [activator, single point] | – |
| CN(C)S(=O)(=O)n1cc(/C=C(\NC(=O)c2ccccc2)C(=O)NCCCn2ccnc2)c2ccccc21 | inconclusive: 32.6 µM [activator, single point] | – |

Continuation:

SMILES | Potency | re-replication activation
COc1ccc(-c2nn(-c3ccccc3)cc2C(=O)N2CCOCC2)cc1 | inactive | –
CC1CCN(C(=O)c2ccc3c(c2)OCCO3)CC1 | inconclusive: 29.1 µM [activator, single point] | –
COC(=O)c1cnc(NNS(=O)(=O)c2ccc(Cl)cc2)nc1C(F)(F)F | inconclusive: 0.92 µM [activator, full curve, poor fit] | –
O=C(O)c1ccc(Nc2nc(-c3cc4ccccc4oc3=O)cs2)cc1O | inconclusive: 29.1 µM [activator, single point] | –
CCOc1ccccc1NC(=S)C(=C([O-])c1ccc2c(c1)OCCO2)[n+]1ccc(CC)cc1 | inconclusive: 0.058 µM [activator, full curve, poor fit] | –
COc1ccc(S(=O)(=O)N2CCN(C(=O)C3COc4ccccc4O3)CC2)cc1 (configuration not stated) | inactive | –
O=C(CN1C(=O)/C(=C\c2cccc(Br)c2)Oc2ccccc21)NCCCN1CCOCC1 | active: 14.6 µM | –
S=c1[nH]nc(-c2ccc(Cl)cc2Cl)n1-c1ccc(Cl)cc1 | inactive | –
COc1c2ccoc2c(OC(C)=O)c2oc(C)cc(=O)c12 | – | inconclusive: 30.7% [activator]
CS(=O)(=O)NCC(c1cccnc1)N1CCN(c2ccccc2F)CC1 (configuration not stated) | – | inconclusive: -28.7% [activator]
COc1ccc(-c2cc(-c3ccccc3)c(C#N)c(S(C)(=O)=O)n2)cc1 | inconclusive: 18.4 µM [activator, single point] | –
CC(NC(=O)COC(=O)C1CCC1)c1ccccc1 (configuration not stated) | inconclusive: 29.1 µM [activator, partial curve, poor fit] | –
CC1(C)c2[nH]c3ccccc3c2C[C@@H]2C(=O)N(Cc3ccccc3)C(=O)N21 | inconclusive: 14.6 µM [activator, single point] | –
FC(F)(F)C12CC(c3ccccc3)=NCCN1CCN2 (configuration not stated) | inconclusive: 29.1 µM [activator, partial curve, poor fit] | –
CCOc1cc(/C=C2/C(=N)N3C=CSC3=NC2=O)ccc1OCCCOc1ccccc1C | inconclusive: 16.4 µM [activator, single point] | –
CCCN(CCC)CCCNC(=O)c1cc2cc3ccc(Cl)cc3nc2o1 | inconclusive: 18.4 µM [activator, single point] | –
CCN(CCNC(=O)Nc1ccc(Cl)cc1)c1ccccc1 | inconclusive: 29.1 µM [activator, single point] | –
COc1ccc(N=C2NN=C(c3c(C)[nH]c4ccccc34)CS2)cc1 | inconclusive: 29.1 µM [activator, single point] | –
COc1ccc(OC)c(Nc2nc(NCc3ccco3)c3ccccc3n2)c1 | inconclusive: 29.1 µM [activator, single point] | –
COc1cccc(-c2nc(CS(=O)(=O)CC(=O)NCC(C)c3ccccc3)c(C)o2)c1 (configuration not stated) | inconclusive: 20.6 µM [activator, single point] | –
N#C/C(=C(/O)COc1cccc2ccccc12)c1nc2ccccc2[nH]1 | inconclusive: 16.4 µM [activator, partial curve, poor fit] | –
CSc1ccc(CCNC(=O)CN2C(=O)c3cccnc3Oc3ccc(C)cc32)cc1 | inconclusive: 0.631 µM [activator, full curve, poor fit] | –
O=C(NN=C1CCCC1)c1ccccc1O | inconclusive: 23.1 µM [activator, single point] | –

SMILES | Potency | re-replication activation
Cc1ccccc1C(C(=O)NC1CCCC1)N(C(=O)Cc1cccs1)c1ccc2c(c1)OCCO2 (configuration not stated) | inconclusive: 32.6 µM [activator, partial curve, poor fit] | –
O=C(O)c1[nH]c2ccc(Cl)cc2c1CC(=O)N1CCN(c2ccccc2)CC1 | inactive | –
CCOC(=O)/C(C#N)=C/c1cn(CCOc2ccccc2)c2ccccc12 | inconclusive: 20.6 µM [activator, partial curve, poor fit] | –
Cc1cnc(NC(=O)c2cccs2)s1 | inconclusive: 0.58 µM [activator, full curve] | –
CCC1(C)Cc2c(sc3nc(NN)n(C)c(=O)c23)CO1 (configuration not stated) | inconclusive: 32.6 µM [activator, partial curve, poor fit] | –
Cc1ccc(Cl)cc1NC(=O)CC(O)(C(F)(F)F)C(F)(F)F | active: 18.4 µM | –
COc1ccc(OC)c(NC(=O)CN2CCc3ccccc3C2)c1 | inactive | –
Oc1ccccc1CC=NC1CCCCC1 | inactive | –
CN1CCC(=O)N(CCSc2ccc(Br)cc2)CC1 | inconclusive: 0.103 µM [activator, full curve, poor fit] | –
Oc1ccc(Cl)cc1/C=C/c1ccc2cccc(O)c2n1 | active: 20.6 µM | –
CCCCC(=Nc1ccc(N)cc1)C1=C(O)C(C(=O)OC)C(C)(C)CC1=O (configuration not stated) | inconclusive: 29.1 µM [activator, partial curve, poor fit] | –
COc1cc2c(cc1OC)C(SC)=NC(C)(C)C2 | inactive | –
CCCCOC(=O)Nc1nccs1 | inconclusive: 32.6 µM [activator, partial curve, poor fit] | –
Cc1ccc(C(=O)NCC(c2ccco2)N2CCc3ccccc3C2)cc1C (configuration not stated) | inactive | –
CCCCCC(=O)Nc1ncc2c(n1)CC(c1cccs1)CC2=O (configuration not stated) | inconclusive: 20.6 µM [activator, single point] | –
Cn1cc(CN2CCCC(CO)(Cc3ccccc3)C2)c2ccccc21 (configuration not stated) | inactive | –
Oc1cccc2ccc(/C=C/c3c(F)cccc3Cl)nc12 | active: 18.4 µM | –
COC1(OC)N=C(N)C2(C#N)C(c3ccc4c(c3)OCO4)C12C#N (configuration not stated) | inconclusive: 29.1 µM [activator, single point] | –
CC1CCN(CC(=O)Nc2ccc(N3CCCCCC3)cc2)CC1 | inconclusive: 18.4 µM [activator, partial curve, poor fit] | –
C=CCn1c(SCC(C)=O)nc2scc(-c3ccco3)c2c1=O | inconclusive: 29.1 µM [activator, single point] | –
Cc1cc(C)n(CC(=O)NNC(=O)c2ccc(NC(=O)CC#N)cc2)n1 | inconclusive: 32.6 µM [activator, single point] | –
